This note sets out measurements from PubChem BioAssay AID493014 (National Center for Advancing Translational Sciences (NCATS), 2011).

A short description of this experiment: qHTS Assay to Find Inhibitors of Chronic Active B-Cell Receptor Signaling. The settings on record: ABC-DLBCL IkBa-CBG/CBR reporter, luminescence ratio (green luciferase fused to IkBa over red control in TMD8 lymphoma cells), 4 h. The method in brief: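 Concentration-response series (up to 46 uM) were applied to TMD8 dual-reporter cells for 4 h at 37C with doxycycline. Green/red ratio, after filter-overlap correction, defined %Activity; red signal alone was normalised to basal cells and zero luminescence.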

Where [1] appears, read: measured here: CBR red luminescence, cell number.
Setting [2] is: measured here: IkBa-CBG green luminescence.

This is one part of the list. The main result of the screen is listed elsewhere. These columns were measured beside it and carry no call. Most of these compounds were active or inconclusive in the main read-out, so they are no random draw. The note in brackets gives the kind of curve behind each potency; many fits are weak.

As for `CCCSc1nc(C)cc(C)c1S(C)(=O)=O`, the AC50 under setting [1] was 35.5 µM [rising, single point].

As to `CC(C)c1ccc(NC(=O)COC(=O)CSc2nnc(N)s2)cc1`, the AC50 under setting [1] was 3.26 µM [rising, single point].

With `CCc1ccc(OCC(=O)O/N=C(\N)c2ccncc2)cc1`, under setting [1], the AC50 was 6.31 µM [rising, full curve, poor fit].

For `COCCN(C(=O)CCl)C(C(=O)NC1CCCCC1)c1ccccc1C` (stereo not drawn), the AC50 under setting [1] is 29.1 µM [falling, single point].

Take `CCOCCCN(C(=O)Nc1ccc(Cl)cc1)C1CCN(C(C)=O)CC1`: the AC50 under setting [1] is 2.82 µM [rising, full curve].

For `COc1cc(-c2nnc(SCC3(c4ccccc4)OCCO3)o2)cc(OC)c1OC`, the AC50 under setting [1] was 35.5 µM [falling, single point].

Regarding `CC1=NN(C(N)=S)C(=O)C1N=Nc1c(Cl)cc([N+](=O)[O-])cc1Cl` (stereo not drawn), the AC50 under setting [1] was 10 µM [rising, partial curve, poor fit].

As to `CCOc1cccc(C(=O)Nc2ccc3ccccc3c2)c1`, under setting [1], the AC50 was 15.8 µM [falling, partial curve, poor fit].

On to `c1ccc(Cc2nnc(N3CCOCC3)c3ccccc23)cc1`, for which the AC50 under setting [1] is 5.17 µM [rising, single point].

On to `Cc1ccnc(N2CCC(C(=O)NNC(=O)c3ccccc3C)CC2)n1`, for which the AC50 under setting [1] was 1.78 µM [falling, full curve].

On to `Cc1cc(-c2ccccc2)n2ncc(C#N)c2n1`, for which the AC50 under setting [1] was 6.51 µM [falling, single point].

As for `CCc1ccc(CNC(=O)CN2C(=O)COc3ccccc32)cc1`, the AC50 under setting [1] is 0.0731 µM [rising, full curve, poor fit].

With `COc1ccc(C(=O)NC(=O)N2CCCCC2)cc1`, the AC50 under setting [1] is 0.103 µM [rising, full curve, poor fit].

In the case of `COc1cccc(-c2nc(NC(C)C)c3ccccc3n2)c1O`, the AC50 under setting [1] is 0.316 µM [falling, full curve, poor fit].

`Cc1cc(C)nc(NC(=O)/C=C/c2cccs2)c1`: the AC50 under setting [1] was 3.98 µM [falling, partial curve].

In the case of `CCCCCCCC1CC(CSC(=N)N)OC1=O` (stereo not drawn), the AC50 under setting [1] was 1.3 µM [falling, full curve, poor fit].

On to `Clc1cccc(Cl)c1-c1noc(CN2CCOCC2)n1`, for which the AC50 under setting [1] was 0.794 µM [rising, full curve, poor fit].

Consider `O=C(NCCOC(=O)c1ccccc1C(=O)OCCNC(=O)c1cccnc1)c1cccnc1`, for which the AC50 under setting [1] was 0.00411 µM [rising, full curve, poor fit].

As for `CCc1nc2oc3ccccc3c(=O)c2c(=O)n1-c1ccccc1`, the AC50 under setting [1] is 1.03 µM [falling, full curve].

Regarding `O=C(NCCOc1ccccc1F)Nc1ccc(Br)cc1`, under setting [1], the half-maximal activity concentration (AC50) was 0.316 µM [rising, full curve, poor fit].

Consider `COc1cc(C2C=C(c3cccs3)Nc3ncnn32)cc(OC)c1OC` (stereo not drawn), for which the AC50 was 5.62 µM [rising, single point] under setting [1] and 5.62 µM [falling, single point] under setting [2].

For the compound `Cc1nc2ccccn2c1/C(O)=C1\C(=O)C(=O)N(CCN2CCOCC2)C1c1cccs1` (stereo not drawn), the AC50 under setting [1] was 13 µM [rising, single point].

For the compound `Cc1csc(NC(=O)CSc2ncnc3ccccc23)n1`, the AC50 under setting [1] was 6.31 µM [falling, single point].

As to `O=C(/C=C/c1cccc(Br)c1)N1CCN(c2cccc(C(F)(F)F)c2)CC1`, the AC50 under setting [1] was 3.26 µM [rising, partial curve, poor fit].

Regarding `FC(F)(F)c1cccc(Cc2noc(CN3CCCC(OCc4ccccn4)C3)n2)c1` (stereo not drawn), under setting [1], the AC50 was 0.316 µM [rising, full curve].

Regarding `CC[C@@H](C)[C@H](NC(=O)OC(C)(C)C)c1nnc(S(=O)(=O)Cc2cc(C)ccc2C)o1`, under setting [1], the AC50 is 6.31 µM [falling, partial curve].

Take `COc1ccc(C(C(=O)NCCC(C)C)N(CCO)C(=O)c2snc(C(N)=O)c2N)cc1` (stereo not drawn): the AC50 under setting [1] was 35.5 µM [rising, partial curve, poor fit].

In the case of `Nc1c(-c2cccc(Cl)c2)cnn1-c1ccccc1`, under setting [1], the AC50 was 10 µM [falling, single point].

`O=C(OCCOc1cccc(Cl)c1)c1cc(S(=O)(=O)N2CCCCC2)ccc1N1CCOCC1`: under setting [1], the AC50 is 0.92 µM [rising, full curve].

Consider `COc1ccc(/C(N)=N/OC(=O)CCc2ccccc2)cc1`, for which the AC50 under setting [1] is 11.2 µM [rising, single point].

Take `C/C(=C\C(=O)C(F)(F)F)Nc1ccc(C)cc1`: the AC50 under setting [1] was 2.31 µM [rising, full curve, poor fit].

As to `CCOc1ccc(/C=N/NC(=O)c2nnn(-c3nonc3N)c2CN(C)C2CCCCC2)cc1`, under setting [1], the half-maximal activity concentration (AC50) was 1.78 µM [rising, partial curve, poor fit].

As to `CCOc1ccccc1N1CCN(C(=O)c2cccc(-c3ccc(O)cc3)c2)CC1`, the AC50 under setting [1] was 25.1 µM [falling, single point].

Turning to `CC1CC(C)CN(CCC(=O)Nc2cccc(Cl)c2)C1` (stereo not drawn), the AC50 under setting [1] is 3.66 µM [rising, single point].

As to `Cc1ccc(N(CC(=O)NC2CCCCC2)C(=O)CCCC(=O)Nc2ccccn2)cc1`, the half-maximal activity concentration (AC50) under setting [1] was 7.08 µM [falling, partial curve].

On to `Cc1nc(C)c(C(=O)OCC(=O)N2CCN(c3ccccc3)CC2)s1`, for which the AC50 under setting [1] was 32.6 µM [falling, single point].

Regarding `COc1ccc2nc(NCCO)[nH]c2c1`, the concentration at half-maximal activity (AC50) under setting [1] is 0.0891 µM [rising, full curve, poor fit].

Take `CCN(CC)CCN(Cc1cc2cc(C)ccc2[nH]c1=O)C(=S)NCc1ccco1`: under setting [1], the AC50 was 29.1 µM [falling, single point].

In the case of `O=C(Nc1ccccc1C(=O)Nc1ccccn1)c1ccccc1F`, the AC50 under setting [2] is 0.708 µM [rising, full curve, poor fit].

In the case of `C=C1C2(C(=O)NCc3ccco3)CCC(C2)C1(C)C` (stereo not drawn), under setting [1], the AC50 was 23.1 µM [falling, single point].

As to `C=CCN1c2ccccc2[C@]23C[C@@H](C(=O)OC)N(C(=O)c4cc(C)oc4C)C2=NC(C(=O)OC)=C(C(=O)OC)[C@H]13`, the AC50 under setting [1] is 0.562 µM [rising, full curve].

As to `COc1ccccc1N1CCN(C(=O)c2ccc3[nH]c(C)c(C)c3c2)CC1`, the AC50 by setting is: under setting [1], 8.91 µM [falling, partial curve, poor fit]; under setting [2], 15.8 µM [falling, single point].

For the compound `O=C(NC1CCCCC1)N(CCO)Cc1cc2cc3c(cc2[nH]c1=O)OCCO3`, under setting [1], the AC50 is 29.1 µM [falling, single point].

`O=C(CSc1n[nH]c(-c2ccccc2O)n1)N1CCOCC1`: the AC50 under setting [1] is 14.1 µM [falling, single point].

As to `CCN(CC(=O)Nc1ccccc1Br)C1CCCCC1`, the AC50 under setting [1] was 20 µM [falling, partial curve, poor fit].

On to `Cc1ccc(Oc2ccccc2/C=N/O)cc1`, for which the AC50 under setting [1] was 16.4 µM [rising, partial curve].

On to `Cc1nc(NC(=O)c2ccc([N+](=O)[O-])cc2Cl)sc1C(=O)N(C)C`, for which, under setting [1], the AC50 was 16.4 µM [falling, partial curve, poor fit].

On to `CCOC(=O)C(=CNc1ccccc1Cl)C(=O)OCC`, for which the AC50 under setting [1] was 10 µM [falling, partial curve, poor fit].

On to `Cc1ccc(CN2CCN(Cc3cc(=O)c4ccccc4[nH]3)CC2CCO)o1` (stereo not drawn), for which the AC50 under setting [1] was 35.5 µM [rising, single point].

Consider `CC(=O)c1cccc(NC(=O)C2COc3ccccc3O2)c1` (stereo not drawn), for which, under setting [1], the AC50 is 0.447 µM [rising, full curve, poor fit].

As for `COCc1ccc(CN2CCCC(CCC(=O)NCc3cccc(OC)c3)C2)o1` (stereo not drawn), under setting [1], the AC50 is 3.55 µM [rising, single point].

In the case of `CCOc1ncccc1C(=O)Nc1ccc2c(c1)OCO2`, under setting [1], the AC50 was 17.8 µM [falling, single point].

`COc1ccc(C)cc1NC(=O)c1ccc(NS(=O)(=O)c2cccc3cccnc23)cc1`: the AC50 under setting [1] is 11.2 µM [rising, partial curve].

Take `Clc1ccc(-c2nnc(C34CC5CC(CC(C5)C3)C4)o2)cn1`: under setting [1], the AC50 was 1.64 µM [falling, partial curve].

With `O=C(CSc1nccc2ccccc12)N1CCN(c2ccccn2)CC1`, the AC50 under setting [1] is 29.1 µM [falling, single point].

On to `CCCNC(=O)C(=O)Nc1ccc(N(C)C)cc1`, for which the AC50 under setting [1] was 10.3 µM [falling, partial curve, poor fit].

Regarding `COc1ccc(C(=O)Nc2cc(Cl)ccc2C(=O)O)cc1`, the AC50 under setting [1] is 11.2 µM [falling, partial curve].

In the case of `CN(C(=O)CCl)C1CCCc2ccccc21` (stereo not drawn), the half-maximal activity concentration (AC50) under setting [1] was 11.2 µM [falling, partial curve, poor fit].

For the compound `Cc1ccccc1NC(=O)Nc1ccccc1Br`, the AC50 under setting [1] was 1.12 µM [falling, full curve].

Take `CCOC(=O)C(C)(C)N(Cc1ccc(C)cc1)S(=O)(=O)c1ccc(Cl)c([N+](=O)[O-])c1`: the AC50 under setting [1] is 20.6 µM [falling, single point].

`O=C(Cc1ccc(Br)cc1)N1CCN(c2ccccc2)CC1`: under setting [1], the AC50 was 29.1 µM [rising, single point].

For the compound `c1ccc(-c2csc(N3CCc4ccccc4C3)n2)cc1`, under setting [1], the AC50 was 0.0891 µM [rising, full curve, poor fit].

Take `Oc1ccc(N=Nc2c(O)ccc3ccccc23)cc1`: under setting [1], the AC50 was 29.1 µM [falling, single point].

Regarding `O=[N+]([O-])c1ccc(-c2ccc(/C=N/c3c(-c4ccco4)nc4ccccn34)o2)cc1`, under setting [1], the half-maximal activity concentration (AC50) is 14.1 µM [rising, partial curve, poor fit].

For the compound `CCOc1ccc(OCC)c(NC(=O)C2CCN(S(=O)(=O)c3cnc[nH]3)CC2)c1`, under setting [1], the AC50 was 3.66 µM [rising, single point].

On to `CCN(CC)C(=O)CSc1nc(-c2ccccc2)cc(=O)[nH]1`, for which the AC50 under setting [1] was 12.6 µM [falling, single point].
